Paper PMC4529982
No constants are given. Whether binding was seen depends on the method and setting. In cells and extracts the contact can be indirect. Some results given as binding are weak or reduced against the parent protein; the word gives no strength.

The chains behind the UniProt entries cited, without tags or fusion partners.
UniProt Q01860: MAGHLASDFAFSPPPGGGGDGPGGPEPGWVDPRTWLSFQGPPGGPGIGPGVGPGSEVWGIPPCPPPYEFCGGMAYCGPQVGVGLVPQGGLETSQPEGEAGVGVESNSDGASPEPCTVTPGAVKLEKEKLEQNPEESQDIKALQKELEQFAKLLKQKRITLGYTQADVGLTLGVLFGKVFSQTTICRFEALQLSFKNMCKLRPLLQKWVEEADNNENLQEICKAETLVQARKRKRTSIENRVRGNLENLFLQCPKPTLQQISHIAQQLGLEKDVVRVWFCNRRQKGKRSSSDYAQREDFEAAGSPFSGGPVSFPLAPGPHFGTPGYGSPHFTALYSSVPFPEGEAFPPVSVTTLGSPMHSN

T1: Nox4 (human (endogenous in AFSC)) (UniProt Q9NPH5)
T1 sequence: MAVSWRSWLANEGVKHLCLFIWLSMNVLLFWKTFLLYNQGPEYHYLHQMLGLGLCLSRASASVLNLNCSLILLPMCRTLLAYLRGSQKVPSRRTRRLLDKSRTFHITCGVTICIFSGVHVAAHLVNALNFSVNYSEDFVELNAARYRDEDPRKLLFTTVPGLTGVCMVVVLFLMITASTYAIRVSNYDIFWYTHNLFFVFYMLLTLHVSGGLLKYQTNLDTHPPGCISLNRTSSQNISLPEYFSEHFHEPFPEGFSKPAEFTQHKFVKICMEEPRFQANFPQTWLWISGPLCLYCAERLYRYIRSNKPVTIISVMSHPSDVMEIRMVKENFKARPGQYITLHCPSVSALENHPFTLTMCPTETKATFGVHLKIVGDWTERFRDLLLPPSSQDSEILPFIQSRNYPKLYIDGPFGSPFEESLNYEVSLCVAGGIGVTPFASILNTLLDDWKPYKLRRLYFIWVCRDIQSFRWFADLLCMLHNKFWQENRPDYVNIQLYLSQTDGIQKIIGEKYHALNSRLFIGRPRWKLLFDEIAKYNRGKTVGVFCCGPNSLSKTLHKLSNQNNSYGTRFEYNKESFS

T2: sc-35 (human (endogenous in AFSC)) (UniProt Q01130)
T2 sequence: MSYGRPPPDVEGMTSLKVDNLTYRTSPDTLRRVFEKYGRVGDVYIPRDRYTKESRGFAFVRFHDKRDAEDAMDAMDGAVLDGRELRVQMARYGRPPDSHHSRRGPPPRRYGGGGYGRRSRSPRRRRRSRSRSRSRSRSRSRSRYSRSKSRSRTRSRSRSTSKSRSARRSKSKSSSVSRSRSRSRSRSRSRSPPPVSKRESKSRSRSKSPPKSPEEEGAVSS

B1: sc-35 (protein, UniProt Q01130 1-221)
chain: T2 sequence
B2: Nox4 (protein, UniProt Q9NPH5 1-578)
chain: T1 sequence

Key:
[1] = molecular target: T1, Nox4 (human (endogenous in AFSC)); test: co-IP; nuclear lysate (NL) of human AFSC immunoprecipitated with Nox4 antibody, western blot with anti-Oct4 and anti-sc-35
[2] = molecular target: T1, Nox4 (human (endogenous in AFSC)); test: co-IP; precleared total lysates of human AFSC (AT lysis buffer: 20 mM Tris-Cl pH 7.0, 1% Nonidet P-40, 150 mM NaCl, 10% glycerol, 10 mM EDTA) incubated overnight with rabbit anti-Nox4 or mouse anti-sc-35 (3 ug), protein A/G agarose at 4°C, western blot
[3] = molecular target: T2, sc-35 (human (endogenous in AFSC)); test: as above

Molecule | binding [1] | binding [2] | binding [3]
Oct4 (from UniProt Q01860 1-360) | binds |  | 
B1 | binds | binds | 
B2 |  |  | binds
